# From the supplement of paper PMC8728848
# The list shows a part of the results.
# B1: Ovorubin (Pomacea canaliculata), J7I2T6 (protein)
# chain: MFVATSLLLAIATLVVRASPHNYLIMDIEPPKSVSERDILNLLSPLQVKHSFRVTGSTRLLIVIRLDAQSYEKLDEITVPGKVEVIPAVNMADTMERCGVSWPRVELTDDNVTLFESESTLTDVTKEQLKAMLIGYGEHMSGLLQAHRFEYYQAAGATPHRHFVFVNSVPDEIEVFGREGVDIWGGPGEFVVKPQYVTRI
# Legend:
# Assay in all cases: glycan array binding signal (z-score within array); higher = stronger binding
# Details in all cases: glycan notation: IUPAC condensed, linker removed
# [1] = target: Neu5Ac(a2-6)Gal(b1-4)GlcNAc(b1-2)Man(a1-3)[Man(a1-6)]Man(b1-4)GlcNAc(b1-4)GlcNAc
# In short: (§1)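 The binding signal is a Z-score computed within each array and averaged over linkers. Arrays of the same protein sequence at different concentrations or buffers were also averaged together. Data originate from 3228 arrays in the Consortium for Functional Glycomics database, kept only where the protein sequence was available.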
# [2] = target: Neu5Ac(a2-6)Gal(b1-4)GlcNAc(b1-2)Man(a1-3)[Neu5Ac(a2-3)Gal(b1-4)GlcNAc(b1-2)Man(a1-6)]Man(b1-4)GlcNAc(b1-4)GlcNAc
# In short: as §1
# [3] = target: Neu5Ac(a2-6)Gal(b1-4)GlcNAc(b1-2)Man(a1-3)[Neu5Ac(a2-6)Gal(b1-4)GlcNAc(b1-2)Man(a1-6)]Man(b1-4)GlcNAc(b1-4)GlcNAc
# In short: as §1
# [4] = target: Neu5Ac(a2-6)Gal(b1-4)GlcNAc(b1-2)Man(a1-3)[Neu5Ac(a2-6)Gal(b1-4)GlcNAc(b1-2)Man(a1-6)]Man(b1-4)GlcNAc(b1-4)[Fuc(a1-6)]GlcNAc
# In short: as §1
# [5] = target: Neu5Ac(a2-6)Gal(b1-4)GlcNAc(b1-2)Man(a1-6)Man(b1-4)GlcNAc(b1-4)GlcNAc
# In short: as §1
# [6] = target: Neu5Ac(a2-6)Gal(b1-4)GlcNAc(b1-2)Man(a1-6)[Gal(b1-4)GlcNAc(b1-2)Man(a1-3)]Man(b1-4)GlcNAc(b1-4)GlcNAc
# In short: as §1
# [7] = target: Neu5Ac(a2-6)Gal(b1-4)GlcNAc(b1-2)Man(a1-6)[GlcNAc(b1-2)Man(a1-3)]Man(b1-4)GlcNAc(b1-4)GlcNAc
# In short: as §1
# [8] = target: Neu5Ac(a2-6)Gal(b1-4)GlcNAc(b1-2)Man(a1-6)[Man(a1-3)]Man(b1-4)GlcNAc(b1-4)GlcNAc
# In short: as §1
# [9] = target: Neu5Ac(a2-6)Gal(b1-4)GlcNAc(b1-2)[Neu5Ac(a2-6)Gal(b1-4)GlcNAc(b1-4)]Man(a1-3)[GlcNAc(b1-4)][Neu5Ac(a2-6)Gal(b1-4)GlcNAc(b1-2)[Neu5Ac(a2-6)Gal(b1-4)GlcNAc(b1-6)]Man(a1-6)]Man(b1-4)GlcNAc(b1-4)GlcNAc
# In short: as §1
# [10] = target: Neu5Ac(a2-6)Gal(b1-4)GlcNAc(b1-2)[Neu5Ac(a2-6)Gal(b1-4)GlcNAc(b1-4)]Man(a1-3)[GlcNAc(b1-4)][Neu5Ac(a2-6)Gal(b1-4)GlcNAc(b1-4)Man(a1-6)]Man(b1-4)GlcNAc(b1-4)GlcNAc
# In short: as §1
# [11] = target: Neu5Ac(a2-6)Gal(b1-4)GlcNAc(b1-2)[Neu5Ac(a2-6)Gal(b1-4)GlcNAc(b1-6)]Man(a1-6)[Neu5Ac(a2-6)Gal(b1-4)GlcNAc(b1-2)Man(a1-3)][GlcNAc(b1-4)]Man(b1-4)GlcNAc(b1-4)GlcNAc
# In short: as §1
# [12] = target: Neu5Ac(a2-6)Gal(b1-4)GlcNAc(b1-3)Gal(b1-3)GlcNAc
# In short: as §1
# [13] = target: Neu5Ac(a2-6)Gal(b1-4)GlcNAc(b1-3)Gal(b1-4)GlcNAc
# In short: as §1
# [14] = target: Neu5Ac(a2-6)Gal(b1-4)GlcNAc(b1-3)Gal(b1-4)GlcNAc(b1-2)Man(a1-3)[Neu5Ac(a2-6)Gal(b1-4)GlcNAc(b1-3)Gal(b1-4)GlcNAc(b1-2)Man(a1-6)]GalNAc
# In short: as §1
# [15] = target: Neu5Ac(a2-6)Gal(b1-4)GlcNAc(b1-3)Gal(b1-4)GlcNAc(b1-3)Gal(b1-4)GlcNAc
# In short: as §1
# [16] = target: Neu5Ac(a2-6)Gal(b1-4)GlcNAc(b1-3)Gal(b1-4)GlcNAc(b1-3)Gal(b1-4)GlcNAc(b1-2)Man(a1-3)[Neu5Ac(a2-6)Gal(b1-4)GlcNAc(b1-3)Gal(b1-4)GlcNAc(b1-3)Gal(b1-4)GlcNAc(b1-2)Man(a1-6)]GalNAc
# In short: as §1
# [17] = target: Neu5Ac(a2-6)Gal(b1-4)GlcNAc(b1-3)Gal(b1-4)GlcNAc(b1-3)GalNAc
# In short: as §1
# [18] = target: Neu5Ac(a2-6)Gal(b1-4)GlcNAc(b1-3)Gal(b1-4)GlcNAc(b1-3)[Neu5Ac(a2-6)Gal(b1-4)GlcNAc(b1-3)Gal(b1-4)GlcNAc(b1-6)]GalNAc
# In short: as §1
# [19] = target: Neu5Ac(a2-6)Gal(b1-4)GlcNAc(b1-3)Gal(b1-4)GlcNAc(b1-6)[Gal(b1-3)]GalNAc
# In short: as §1
# [20] = target: Neu5Ac(a2-6)Gal(b1-4)GlcNAc(b1-3)Gal(b1-4)[Fuc(a1-3)]GlcNAc(b1-3)Gal(b1-4)[Fuc(a1-3)]GlcNAc
# In short: as §1
# [21] = target: Neu5Ac(a2-6)Gal(b1-4)GlcNAc(b1-3)GalNAc
# In short: as §1
# [22] = target: Neu5Ac(a2-6)Gal(b1-4)GlcNAc(b1-3)[Neu5Ac(a2-6)Gal(b1-4)GlcNAc(b1-6)]GalNAc
# In short: as §1
# [23] = target: Neu5Ac(a2-6)Gal(b1-4)GlcNAc(b1-6)GalNAc
# In short: as §1
# [24] = target: Neu5Ac(a2-6)Gal(b1-4)GlcNAc(b1-6)[Gal(b1-3)GlcNAc(b1-3)]Gal(b1-4)Glc
# In short: as §1
# [25] = target: Neu5Ac(a2-6)Gal(b1-4)GlcNAc(b1-6)[Gal(b1-3)]GalNAc
# In short: as §1
# [26] = target: Neu5Ac(a2-6)Gal(b1-4)GlcNAc6S
# In short: as §1
# [27] = target: Neu5Ac(a2-6)GalNAc
# In short: as §1
# [28] = target: Neu5Ac(a2-6)GalNAc(b1-4)GlcNAc
# In short: as §1
# [29] = target: Neu5Ac(a2-6)GalNAc(b1-4)GlcNAc6S
# In short: as §1
# [30] = target: Neu5Ac(a2-6)GlcNAc(b1-4)GlcNAc
# In short: as §1
# [31] = target: Neu5Ac(a2-6)GlcNAc(b1-4)GlcNAc(b1-4)GlcNAc
# In short: as §1
binder,measurement,setting,value
B1,glycan array binding signal (z-score),[1],-1.01
same,glycan array binding signal (z-score),[2],-0.478
same,glycan array binding signal (z-score),[3],0.177
same,glycan array binding signal (z-score),[4],-0.129
same,glycan array binding signal (z-score),[5],0.429
same,glycan array binding signal (z-score),[6],0.032
same,glycan array binding signal (z-score),[7],-0.738
same,glycan array binding signal (z-score),[8],-0.358
same,glycan array binding signal (z-score),[9],3.19
same,glycan array binding signal (z-score),[10],0.349
same,glycan array binding signal (z-score),[11],-0.646
same,glycan array binding signal (z-score),[12],0.712
same,glycan array binding signal (z-score),[13],-0.75
same,glycan array binding signal (z-score),[14],-0.502
same,glycan array binding signal (z-score),[15],0.311
same,glycan array binding signal (z-score),[16],3.06
same,glycan array binding signal (z-score),[17],-0.625
same,glycan array binding signal (z-score),[18],-0.008
same,glycan array binding signal (z-score),[19],0.024
same,glycan array binding signal (z-score),[20],-0.228
same,glycan array binding signal (z-score),[21],-0.017
same,glycan array binding signal (z-score),[22],0.114
same,glycan array binding signal (z-score),[23],0.155
same,glycan array binding signal (z-score),[24],-0.737
same,glycan array binding signal (z-score),[25],-0.793
same,glycan array binding signal (z-score),[26],-1.32
same,glycan array binding signal (z-score),[27],-0.977
same,glycan array binding signal (z-score),[28],-0.745
same,glycan array binding signal (z-score),[29],0.474
same,glycan array binding signal (z-score),[30],-0.636
same,glycan array binding signal (z-score),[31],-0.924

# 2 records picked at random from those above:
binder,measurement,setting,value
B1,glycan array binding signal (z-score),[31],-0.924
same,glycan array binding signal (z-score),[14],-0.502
